According to publication doi:10.1101/2023.09.12.557183:
Like-named read-outs stand apart in the source and are kept apart here. Results are given in words; binding and its absence hold for the method and conditions named. In cells and extracts the contact can be indirect. A yes stands for co-enrichment or nearness to the bait. Other partners may have been found.

Protein sequences, listed by entry. Tags and fused reporters are not part of them. Residues count along the entry.
UniProt P17931: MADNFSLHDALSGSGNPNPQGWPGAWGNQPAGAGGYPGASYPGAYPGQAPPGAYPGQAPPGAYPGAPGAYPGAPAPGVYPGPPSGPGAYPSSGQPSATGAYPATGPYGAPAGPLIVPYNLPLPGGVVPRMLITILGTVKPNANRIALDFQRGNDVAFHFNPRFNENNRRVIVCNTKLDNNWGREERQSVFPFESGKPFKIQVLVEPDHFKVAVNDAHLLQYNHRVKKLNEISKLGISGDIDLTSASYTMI
UniProt P16070, residues 21-742: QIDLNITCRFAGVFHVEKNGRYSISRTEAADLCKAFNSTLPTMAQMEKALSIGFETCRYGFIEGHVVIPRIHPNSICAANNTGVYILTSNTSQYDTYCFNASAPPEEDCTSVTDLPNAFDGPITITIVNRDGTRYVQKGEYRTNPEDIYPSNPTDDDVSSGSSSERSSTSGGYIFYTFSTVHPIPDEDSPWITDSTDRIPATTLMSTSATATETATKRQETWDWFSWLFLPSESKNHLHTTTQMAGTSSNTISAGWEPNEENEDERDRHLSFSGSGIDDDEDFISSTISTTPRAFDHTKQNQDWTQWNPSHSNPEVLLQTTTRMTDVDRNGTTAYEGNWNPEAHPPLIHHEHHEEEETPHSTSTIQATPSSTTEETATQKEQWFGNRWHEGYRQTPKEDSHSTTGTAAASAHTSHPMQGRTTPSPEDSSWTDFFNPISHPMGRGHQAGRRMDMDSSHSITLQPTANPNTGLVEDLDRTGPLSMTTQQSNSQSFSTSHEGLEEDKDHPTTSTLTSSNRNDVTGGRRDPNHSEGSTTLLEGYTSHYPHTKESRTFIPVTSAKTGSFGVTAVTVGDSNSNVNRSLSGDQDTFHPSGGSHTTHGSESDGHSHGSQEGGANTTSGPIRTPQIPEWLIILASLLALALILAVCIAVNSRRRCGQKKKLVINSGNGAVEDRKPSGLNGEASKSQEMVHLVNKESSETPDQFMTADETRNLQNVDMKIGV
UniProt P48960, residues 21-835: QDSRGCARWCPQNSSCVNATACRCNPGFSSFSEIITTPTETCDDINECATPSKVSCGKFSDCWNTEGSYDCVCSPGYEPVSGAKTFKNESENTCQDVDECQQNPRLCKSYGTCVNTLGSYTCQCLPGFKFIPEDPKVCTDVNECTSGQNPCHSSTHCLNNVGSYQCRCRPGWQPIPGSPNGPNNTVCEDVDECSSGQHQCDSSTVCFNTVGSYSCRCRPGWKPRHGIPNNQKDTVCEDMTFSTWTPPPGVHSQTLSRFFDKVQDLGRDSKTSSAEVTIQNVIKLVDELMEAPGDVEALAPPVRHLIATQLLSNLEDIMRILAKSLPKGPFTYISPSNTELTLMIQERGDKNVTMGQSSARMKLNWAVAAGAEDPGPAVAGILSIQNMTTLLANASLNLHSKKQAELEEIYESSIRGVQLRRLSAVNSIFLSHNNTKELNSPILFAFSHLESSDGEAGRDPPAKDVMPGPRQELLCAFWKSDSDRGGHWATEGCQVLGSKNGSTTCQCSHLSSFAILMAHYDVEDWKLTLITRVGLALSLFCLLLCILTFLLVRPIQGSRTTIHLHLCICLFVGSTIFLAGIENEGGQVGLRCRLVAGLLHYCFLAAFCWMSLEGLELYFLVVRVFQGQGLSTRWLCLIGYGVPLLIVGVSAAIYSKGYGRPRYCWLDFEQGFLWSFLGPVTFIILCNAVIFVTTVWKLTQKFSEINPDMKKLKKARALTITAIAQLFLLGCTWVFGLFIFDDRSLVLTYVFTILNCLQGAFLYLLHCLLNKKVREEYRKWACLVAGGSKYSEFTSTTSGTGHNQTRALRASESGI
UniProt P17301, residues 30-1181: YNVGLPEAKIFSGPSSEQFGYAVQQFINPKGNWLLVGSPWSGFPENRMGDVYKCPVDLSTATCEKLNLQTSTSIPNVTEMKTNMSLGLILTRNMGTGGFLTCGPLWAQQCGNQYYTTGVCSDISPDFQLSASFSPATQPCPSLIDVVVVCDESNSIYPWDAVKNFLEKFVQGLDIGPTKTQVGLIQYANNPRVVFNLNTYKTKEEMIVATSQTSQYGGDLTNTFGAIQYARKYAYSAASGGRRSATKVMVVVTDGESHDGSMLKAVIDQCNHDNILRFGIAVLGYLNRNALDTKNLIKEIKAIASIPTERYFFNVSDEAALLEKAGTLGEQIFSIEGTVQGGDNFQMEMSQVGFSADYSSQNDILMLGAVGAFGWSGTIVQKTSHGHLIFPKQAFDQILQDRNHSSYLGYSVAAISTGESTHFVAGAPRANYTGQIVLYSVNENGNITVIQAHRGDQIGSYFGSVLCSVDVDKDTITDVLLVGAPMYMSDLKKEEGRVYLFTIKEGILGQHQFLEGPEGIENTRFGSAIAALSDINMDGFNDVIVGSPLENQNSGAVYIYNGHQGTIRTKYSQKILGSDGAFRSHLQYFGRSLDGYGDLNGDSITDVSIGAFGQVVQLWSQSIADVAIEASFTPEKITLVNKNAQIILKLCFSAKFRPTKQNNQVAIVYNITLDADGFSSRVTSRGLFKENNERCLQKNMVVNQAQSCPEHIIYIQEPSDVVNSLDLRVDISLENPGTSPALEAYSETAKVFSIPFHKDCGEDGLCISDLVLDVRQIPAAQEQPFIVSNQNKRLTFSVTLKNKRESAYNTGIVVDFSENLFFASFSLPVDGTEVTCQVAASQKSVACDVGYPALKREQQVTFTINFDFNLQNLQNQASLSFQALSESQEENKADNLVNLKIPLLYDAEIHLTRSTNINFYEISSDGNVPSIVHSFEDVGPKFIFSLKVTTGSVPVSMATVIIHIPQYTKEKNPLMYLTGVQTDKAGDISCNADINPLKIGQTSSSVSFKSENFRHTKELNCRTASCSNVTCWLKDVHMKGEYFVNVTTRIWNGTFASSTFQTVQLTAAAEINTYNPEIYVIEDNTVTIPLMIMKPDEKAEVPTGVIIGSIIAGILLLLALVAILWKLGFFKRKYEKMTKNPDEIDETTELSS

Assays:
[1] = molecular target: C-term His-tagged Gal3 (Gal3-His) (UniProt P17931); test: affinity purification with mass spectrometry
[2] = molecular target: C-term His-tagged Gal3 (Gal3-His) (UniProt P17931); test: affinity purification with mass spectrometry; remark: listed apart in the source

| Substance | binding [1] | binding [2] |
| --- | --- | --- |
| CD44 (from UniProt P16070 21-742) (receptor) | binds | – |
| G protein coupled receptor CD97 (from UniProt P48960 21-835) | binds | binds |
| α2 integrin (from UniProt P17301 30-1181) (receptor) | binds | – |
